Results are given in words; binding and its absence hold for the method and conditions named. In cells and extracts the contact can be indirect. Some binding calls cover weakened binding; strength is not graded here. Sequences can lack the tags named with a protein.

Amino acid sequences for entries named in this document (tags omitted).
UniProt O35964: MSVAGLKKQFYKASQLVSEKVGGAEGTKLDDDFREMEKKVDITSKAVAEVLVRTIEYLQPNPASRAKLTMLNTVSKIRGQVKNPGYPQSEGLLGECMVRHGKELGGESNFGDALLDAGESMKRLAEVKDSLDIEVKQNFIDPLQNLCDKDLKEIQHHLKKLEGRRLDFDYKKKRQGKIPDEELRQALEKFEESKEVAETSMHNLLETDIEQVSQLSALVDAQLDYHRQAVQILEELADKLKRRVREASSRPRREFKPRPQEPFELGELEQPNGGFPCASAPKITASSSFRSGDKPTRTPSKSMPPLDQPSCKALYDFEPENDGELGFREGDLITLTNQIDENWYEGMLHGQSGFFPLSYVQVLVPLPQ
UniProt P15311: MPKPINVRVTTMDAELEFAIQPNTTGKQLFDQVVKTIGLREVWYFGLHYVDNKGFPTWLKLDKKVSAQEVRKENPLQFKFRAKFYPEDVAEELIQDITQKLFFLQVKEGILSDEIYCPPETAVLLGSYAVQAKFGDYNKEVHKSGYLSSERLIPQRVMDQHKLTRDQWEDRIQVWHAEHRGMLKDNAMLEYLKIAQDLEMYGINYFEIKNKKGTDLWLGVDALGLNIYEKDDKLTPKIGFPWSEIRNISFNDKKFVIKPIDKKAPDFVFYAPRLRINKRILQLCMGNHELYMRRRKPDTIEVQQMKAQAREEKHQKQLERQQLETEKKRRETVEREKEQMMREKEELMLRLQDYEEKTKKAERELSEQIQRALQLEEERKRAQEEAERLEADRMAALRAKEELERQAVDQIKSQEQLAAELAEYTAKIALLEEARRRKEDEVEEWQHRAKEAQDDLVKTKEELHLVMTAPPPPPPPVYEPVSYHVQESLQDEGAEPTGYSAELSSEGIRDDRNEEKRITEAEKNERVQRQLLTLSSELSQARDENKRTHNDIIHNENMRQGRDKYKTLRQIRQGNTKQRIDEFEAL
UniProt Q99963: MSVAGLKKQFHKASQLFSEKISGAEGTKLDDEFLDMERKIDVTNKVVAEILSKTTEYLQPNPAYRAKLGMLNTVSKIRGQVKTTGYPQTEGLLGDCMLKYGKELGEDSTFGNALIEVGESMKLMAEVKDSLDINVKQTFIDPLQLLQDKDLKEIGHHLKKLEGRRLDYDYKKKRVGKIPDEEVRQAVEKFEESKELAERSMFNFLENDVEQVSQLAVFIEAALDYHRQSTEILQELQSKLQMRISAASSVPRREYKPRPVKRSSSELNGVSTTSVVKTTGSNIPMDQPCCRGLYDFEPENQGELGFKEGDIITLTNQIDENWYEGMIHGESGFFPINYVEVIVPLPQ

The target in this experiment is T1, GST-tagged CD166 cytoplasmic tail (human) (UniProt Q13740).
T1 sequence: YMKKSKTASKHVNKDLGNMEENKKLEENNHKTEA
Briefly: pull-down; GST-CD166 tail on glutathione beads exposed to lysates of HeLa cells stably expressing endoA2- or endoA3-GFP-FKBP for 2 h at 4 °C; 150 mM NaCl, 25 mM HEPES pH 7.4, 2 mM EDTA, 1% NP40; five washes; immunoblot with anti-endoA2, anti-endoA3 and anti-ezrin; only the target purified. For orientation: Immunoblotting shows a protein as a band on a membrane.
Turning to “endophilin-A2, GFP-FKBP-tagged (from UniProt O35964 1-368)”, the binding result was “no binding”.

Take ezrin (from UniProt P15311 1-586): the binding entry is listed as “binds”.

For the substance “human endophilin-A3, C-terminally GFP-FKBP-tagged (from UniProt Q99963 1-347)”, the binding entry is reported as “binds weakly”.
